Here are results for 42 sequences from paper PMC7819943, “Rice protein-binding microarrays: a tool to detect cis-acting elements near promoter regions in rice”.

By UniProt entry, the sequences of proteins in these tests, tags left out.
UniProt Q0JBA9, entry or part of it: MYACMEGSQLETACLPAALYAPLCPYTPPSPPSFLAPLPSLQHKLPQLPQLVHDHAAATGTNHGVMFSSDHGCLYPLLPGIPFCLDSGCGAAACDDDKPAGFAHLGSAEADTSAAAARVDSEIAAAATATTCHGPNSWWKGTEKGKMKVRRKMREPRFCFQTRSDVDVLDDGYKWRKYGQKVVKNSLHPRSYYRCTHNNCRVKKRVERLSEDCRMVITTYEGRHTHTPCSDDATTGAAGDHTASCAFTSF

The other results are listed elsewhere or left out.

The test concerns the target OsWRKY34 (Oryza sativa, UniProt Q0JBA9 1-250). Nature of the test: protein-binding microarray (RPBM); PBS, 2% BSA, 51.3 ng/ul salmon testes DNA, 50 uM zinc acetate, 200 nM TF, 25 C, 1 h; high values mean tight binding. The following applies: protein: recombinant; tags: N-terminal polyhistidine and DsRed monomer fusion (pET32a); label: CyDye5-dUTP incorporated in the synthesized complementary strand; 3' TTTTT single-stranded linker to array surface; dsDNA, one strand shown. In a few lines: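 Transcription factors, each fused N-terminally to a polyhistidine tag and DsRed, were expressed in E. coli BL21-CodonPlus and purified on Ni–NTA. A custom Agilent array was made double-stranded by primer extension with Cy5-dUTP and blocked with 2% BSA. It was incubated with 200 nM protein in PBS, 2% BSA, salmon testes DNA and 50 µM zinc acetate at 25 °C for 1 h, then washed. The binding signal is per-feature fluorescence intensity (arbitrary units) read on an Axon 4000B scanner.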
“TTCGTGTGTTTCATATTATTTTAAGGTGTGCTAGTTTTTCCGGAGTCACCTAGTGCAG”: the binding signal is 8150 fluorescence intensity (a.u.).

For the sequence “TATCACATGTTTAACCATTCGTCTTATTCAAAAAATTTATCGGAGTCACCTAGTGCAG”, the binding signal is 8170 fluorescence intensity (a.u.).

Consider “TGGTGAGGAGGAGGAGGAGGAGGAGCGGGGAGAGTGTCGCCGGAGTCACCTAGTGCAG”, for which the binding signal was 8870 fluorescence intensity (a.u.).

“GTCTTTTGTTCATTAGCTTCTTCTCTTTTCTGCACATTTTCGGAGTCACCTAGTGCAG”: the binding signal is 10900 fluorescence intensity (a.u.).

As for “GTCGATTAGCAAACATGCATTTCATCTGCAGATTCTGACACGGAGTCACCTAGTGCAG”, the binding signal was 8250 fluorescence intensity (a.u.).

Take “CGTGTTCAACGTTTGACCGTCTGTCTTATTTAAAAATTTTCGGAGTCACCTAGTGCAG”: the binding signal is 8750 fluorescence intensity (a.u.).

As to “ATCTGTTATGTTTGCCCTGTCATTGGTTCTGCTAATCAATCGGAGTCACCTAGTGCAG”, the binding signal is 9160 fluorescence intensity (a.u.).

For “CGTTTTTCGAGTGCACATATTTGTTTTACTTGTTTTGAAACGGAGTCACCTAGTGCAG”, the binding signal was 10800 fluorescence intensity (a.u.).

Turning to “GCATGGGTAACTACTATTCCTCCTCTCGCTAATATATTTCCGGAGTCACCTAGTGCAG”, the binding signal was 10200 fluorescence intensity (a.u.).

On to “AGTGGTTAGTTGGGTACATGGAAAAATATAATATATACCACGGAGTCACCTAGTGCAG”, for which the binding signal is 8220 fluorescence intensity (a.u.).

In the case of “GGTACGTCATCCGTGTTTGAGTGGGTTTTAAAGTTCATTCCGGAGTCACCTAGTGCAG”, the binding signal was 12600 fluorescence intensity (a.u.).

For the sequence “GTTTGTATAGCTCCTATTGTACATTTTTGTTTGCATAGCTCGGAGTCACCTAGTGCAG”, the binding signal was 11100 fluorescence intensity (a.u.).

Take “AATTTTTCACCCATCACATCAAATGTTTGGATACATACATCGGAGTCACCTAGTGCAG”: the binding signal is 9330 fluorescence intensity (a.u.).

As to “CATCGTAATTTGTTTTTCAGCATTTATTTTTAAATTGTTACGGAGTCACCTAGTGCAG”, the binding signal was 8220 fluorescence intensity (a.u.).

“GGGCCCAGCCCACAGCGCCGCATTTGTTTCGACCGCTTCACGGAGTCACCTAGTGCAG”: the binding signal was 9960 fluorescence intensity (a.u.).

“TGCTCTGATGGGGTTATGTTCATTTAAGGCTGGATTGGTACGGAGTCACCTAGTGCAG”: the binding signal is 8600 fluorescence intensity (a.u.).

Take “GCCTGTCTCTGTGGAGCTGCGGTGCCAATATTACTGCTTCCGGAGTCACCTAGTGCAG”: the binding signal is 8650 fluorescence intensity (a.u.).

As to “ATTTTTTTTTCTCCTTTTTTCCACACCAGTTAGTTTTAGCCGGAGTCACCTAGTGCAG”, the binding signal is 8780 fluorescence intensity (a.u.).

Take “TTGTGACTTGACTTTGCCAATCTTAGTCTATTTTCTCGAGCGGAGTCACCTAGTGCAG”: the binding signal is 8840 fluorescence intensity (a.u.).

For the sequence “AATGTTTACTGTACCACCACACTGTCAAATCATGGCACAACGGAGTCACCTAGTGCAG”, the binding signal was 8220 fluorescence intensity (a.u.).

For “GCGGCTATCGTGTTGGTCTCTTACTTAGCTATATTTAGATCGGAGTCACCTAGTGCAG”, the binding signal is 8590 fluorescence intensity (a.u.).

For “TTGATTTTGCAACACGATTATGTTGTCTTCTTTTCCCTATCGGAGTCACCTAGTGCAG”, the binding signal was 8800 fluorescence intensity (a.u.).

For “TCGTCCCCGCCGCCACCACATGTGCCGCTCCGTCGTGCTCCGGAGTCACCTAGTGCAG”, the binding signal is 8800 fluorescence intensity (a.u.).

In the case of “TATAGGAGGGAGGGGTCTAATTTAAAATTCTAATCATCATCGGAGTCACCTAGTGCAG”, the binding signal is 8960 fluorescence intensity (a.u.).

As to “AGGTGAGAGTGAGTTGGTTTATTTCGTTTTTTCGTGCACGCGGAGTCACCTAGTGCAG”, the binding signal is 8400 fluorescence intensity (a.u.).

Consider “TGTGGTGGGTTCTAGCTCTAGTTGCAGCAATGTTTCCGAACGGAGTCACCTAGTGCAG”, for which the binding signal is 14300 fluorescence intensity (a.u.).

“TTTGCTCTTGACACAATCCCCAACCTAGTTTGTTGGATTTCGGAGTCACCTAGTGCAG”: the binding signal was 8510 fluorescence intensity (a.u.).

As to “GAATTTCTCTTGTAGCCATGTTTTTTTTTCTAATTAAGATCGGAGTCACCTAGTGCAG”, the binding signal is 8840 fluorescence intensity (a.u.).

For the sequence “CCCAGACACGCGCGTCCCATCGCCCCTATCCATGCCCAATCGGAGTCACCTAGTGCAG”, the binding signal is 8420 fluorescence intensity (a.u.).

As for “AGAGCGGTAGTGATTGTGGTTGGGGCGGCAGTTAGTGGTTCGGAGTCACCTAGTGCAG”, the binding signal is 13400 fluorescence intensity (a.u.).

“TCCTCGGATCCACGCCATCTCTCTTGACCAGCCGAGCGCACGGAGTCACCTAGTGCAG”: the binding signal was 12900 fluorescence intensity (a.u.).

Take “TGCGGTGTGTTTTTTTTTTCAAAATGTACTCCCTCCGTTTCGGAGTCACCTAGTGCAG”: the binding signal was 9030 fluorescence intensity (a.u.).

“TCTAGGCCTTATCAGTTTTGTATAGTTTTATCCCTAGGGGCGGAGTCACCTAGTGCAG”: the binding signal is 9060 fluorescence intensity (a.u.).

“GATCTTACCTGATTTAACTATTTTTACTCTATATGCTTCGCGGAGTCACCTAGTGCAG”: the binding signal is 8890 fluorescence intensity (a.u.).

With “CTTTGTCTACATTCCCATGGCTGCAGAGCTACGAGGAGGGCGGAGTCACCTAGTGCAG”, the binding signal was 9070 fluorescence intensity (a.u.).

With “TAAGAGCAAAGTCCGTATTTAATTGTTTGGTTGGTAGAATCGGAGTCACCTAGTGCAG”, the binding signal is 8040 fluorescence intensity (a.u.).

For “AAACTACCCTTGTATGCCATGTGTTCTTTATTCTACTGGTCGGAGTCACCTAGTGCAG”, the binding signal was 10700 fluorescence intensity (a.u.).

Regarding “ACCAGTATTTAATTCCTTCTATTTTTGGTACTTCTGCAGGCGGAGTCACCTAGTGCAG”, the binding signal was 8130 fluorescence intensity (a.u.).

For the sequence “CATTGGCAGGACATCACATGTTAATATTGTTAGCTTATTTCGGAGTCACCTAGTGCAG”, the binding signal was 8060 fluorescence intensity (a.u.).

In the case of “CTCCTCTTATCTTGGGCAGTAGTGGCGCTACCTCTTTCTTCGGAGTCACCTAGTGCAG”, the binding signal was 8570 fluorescence intensity (a.u.).

Consider “CGACGCGCTGGCATGTATTTTCAACGTCTTCTTCTGTCGTCGGAGTCACCTAGTGCAG”, for which the binding signal was 9880 fluorescence intensity (a.u.).

Regarding “CCCTACGTTACATTTTTAAGTCACTGATGTGTAGATCCATCGGAGTCACCTAGTGCAG”, the binding signal was 10000 fluorescence intensity (a.u.).
